The target of this assay is pCMV-BD fused with NCoR (aa1906-2312) (UniProt O75376). Briefly: two-hybrid; mammalian two-hybrid in HEK293T: pCMV-BD-NCoR (aa1906-2312), pCMV-AD-RORγt, pFR-Luc and pRL-CMV reporters; titrated JNJ-54271074 overnight; luciferase read-out.

Chains of the proteins cited; added tags and fusions are not shown. Residues count along the entry.
UniProt O75376, residues 1906-2312: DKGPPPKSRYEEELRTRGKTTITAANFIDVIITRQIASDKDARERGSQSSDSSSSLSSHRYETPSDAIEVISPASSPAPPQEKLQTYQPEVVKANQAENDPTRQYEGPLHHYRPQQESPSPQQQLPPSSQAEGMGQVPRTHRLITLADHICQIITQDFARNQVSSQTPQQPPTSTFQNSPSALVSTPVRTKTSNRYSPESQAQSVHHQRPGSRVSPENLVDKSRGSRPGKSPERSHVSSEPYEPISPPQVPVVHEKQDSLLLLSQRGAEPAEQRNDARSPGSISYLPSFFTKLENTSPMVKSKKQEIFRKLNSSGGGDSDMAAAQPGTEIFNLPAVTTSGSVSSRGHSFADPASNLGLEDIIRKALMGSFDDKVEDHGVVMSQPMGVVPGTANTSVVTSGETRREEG

Results are given in words; binding and its absence hold for the method and conditions named. Some binding calls cover weakened binding; strength is not graded here.

Regarding “NFκB-AD-RORγt fusion protein (from UniProt P51449-2 1-497)”, the binding result is “binds”.

The values above are taken from publication PMC5131364, “Pharmacologic modulation of RORγt translates to efficacy in preclinical and translational models of psoriasis and inflammatory arthritis” (Scientific Reports, 2016).
